Source: the supplement of paper PMC8007513
Some of the results follow. Repeats are few or missing, and single values can be far off.

System: Saccharomyces cerevisiae BY4743
Assay: growth (OD600) with compound + IPBC relative to untreated control; higher = less growth inhibition
Details: compound concentration: 133 uM; IPBC concentration: 0.5 ug/ml; 20 h
Experimental: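 NMCCC compounds (133 uM) combined with IPBC (0.5 ug/ml) against Saccharomyces cerevisiae BY4743 in YPD, 96-well plates. Growth was read as OD600 at 20 h and expressed as % of the untreated control. Single pass.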

| Structure (SMILES) | growth [%] |
| --- | --- |
| CCOC(=O)c1ccc(NC(=O)CSc2nc3[nH]cc(Br)c(C)c-3n2)cc1 + CCCCNC(=O)OCC#CI [3-iodo-2-propynyl butylcarbamate (IPBC)] | 83.1 |
| COc1ccc(NC(=O)c2c(C)nn(Cc3ccccc3Cl)c2C)cc1 + CCCCNC(=O)OCC#CI [3-iodo-2-propynyl butylcarbamate (IPBC)] | 80.7 |
| CCSc1ccccc1C(=O)Nc1ccc(S(=O)(=O)NCC(F)(F)F)cc1 + CCCCNC(=O)OCC#CI [3-iodo-2-propynyl butylcarbamate (IPBC)] | 93.5 |
| CCCCn1nc(C)c(C(=O)NC(c2nc3ccccc3[nH]2)C(C)C)c1Cl (centres undefined) + CCCCNC(=O)OCC#CI [3-iodo-2-propynyl butylcarbamate (IPBC)] | 106 |
| Cn1cccc1C(=O)NC(=O)CSc1nc2cc(Cl)c[nH]c-2n1 + CCCCNC(=O)OCC#CI [3-iodo-2-propynyl butylcarbamate (IPBC)] | 75.2 |
| Cn1c(Cc2nnnn2Cc2ccc(Cl)cc2Cl)nnc1SCC(N)=O + CCCCNC(=O)OCC#CI [3-iodo-2-propynyl butylcarbamate (IPBC)] | 88.5 |
| O=C(CN1CCN(c2csc(Cl)n2)CC1)Nc1ccc(Cl)c(C(F)(F)F)c1 + CCCCNC(=O)OCC#CI [3-iodo-2-propynyl butylcarbamate (IPBC)] | 101 |
| CCN(CC)\C1=C(/C(=O)N2CCOCC2)[S](=O)(=O)C3=CC=CC=C13 + CCCCNC(=O)OCC#CI [3-iodo-2-propynyl butylcarbamate (IPBC)] | 106 |
| CCCN1\C=C(/C(=O)C2=CC(=CC=C12)CC)[S](=O)(=O)C3=CC=C(OC)C=C3 + CCCCNC(=O)OCC#CI [3-iodo-2-propynyl butylcarbamate (IPBC)] | 106 |
| CC(C)NC(=O)NCCc1nc2cccnc2n1-c1ccccc1 + CCCCNC(=O)OCC#CI [3-iodo-2-propynyl butylcarbamate (IPBC)] | 90 |
| Cc1cc(NC(=O)CSCC(=O)OCc2ccc(-n3cccn3)cc2)no1 + CCCCNC(=O)OCC#CI [3-iodo-2-propynyl butylcarbamate (IPBC)] | 102 |
| FC(F)(F)CNC(=O)C1=CC=CC=C1NC(=O)CN2C(=O)\C=C/N(CC3=CC=CC=C3)C2=O + CCCCNC(=O)OCC#CI [3-iodo-2-propynyl butylcarbamate (IPBC)] | 96.4 |
| O=C1CCCCC1Sc1nnc(O)n1Cc1ccccc1 (centres undefined) + CCCCNC(=O)OCC#CI [3-iodo-2-propynyl butylcarbamate (IPBC)] | 91 |
| Cc1nc(O)c(C#N)c(C)c1CCC(=O)N(C)Cc1ccc(OC(F)F)cc1 + CCCCNC(=O)OCC#CI [3-iodo-2-propynyl butylcarbamate (IPBC)] | 113 |
| CC1=CC=CC=C1CCNC(=O)CN2\N=C(/OC2=O)C3=CC=CC=C3 + CCCCNC(=O)OCC#CI [3-iodo-2-propynyl butylcarbamate (IPBC)] | 98.4 |
| CCN(Cc1ccncc1)Cn1c(=O)oc2ccccc21 + CCCCNC(=O)OCC#CI [3-iodo-2-propynyl butylcarbamate (IPBC)] | 91.9 |
| CC(C)CCN(Cc1ccco1)S(=O)(=O)c1ccc2c(c1)C(C)(C)C(=O)N2C + CCCCNC(=O)OCC#CI [3-iodo-2-propynyl butylcarbamate (IPBC)] | 88.8 |
| Cc1ccc(NC(=O)CCc2ccc(C)o2)c(Br)c1 + CCCCNC(=O)OCC#CI [3-iodo-2-propynyl butylcarbamate (IPBC)] | 82.5 |
| CC(=O)Nc1ccc(C(=O)CSc2nc3cc(C)ccc3[nH]2)c(F)c1 + CCCCNC(=O)OCC#CI [3-iodo-2-propynyl butylcarbamate (IPBC)] | 104 |
| Cc1cc(N2CCN(CC(=O)N(C)C)CC2)n2nc(C(F)(F)F)nc2n1 + CCCCNC(=O)OCC#CI [3-iodo-2-propynyl butylcarbamate (IPBC)] | 112 |

Taken from above (ten entries):

| Structure (SMILES) | growth [%] |
| --- | --- |
| CCSc1ccccc1C(=O)Nc1ccc(S(=O)(=O)NCC(F)(F)F)cc1 + CCCCNC(=O)OCC#CI [3-iodo-2-propynyl butylcarbamate (IPBC)] | 93.5 |
| CCCCn1nc(C)c(C(=O)NC(c2nc3ccccc3[nH]2)C(C)C)c1Cl (centres undefined) + CCCCNC(=O)OCC#CI [3-iodo-2-propynyl butylcarbamate (IPBC)] | 106 |
| Cn1cccc1C(=O)NC(=O)CSc1nc2cc(Cl)c[nH]c-2n1 + CCCCNC(=O)OCC#CI [3-iodo-2-propynyl butylcarbamate (IPBC)] | 75.2 |
| Cn1c(Cc2nnnn2Cc2ccc(Cl)cc2Cl)nnc1SCC(N)=O + CCCCNC(=O)OCC#CI [3-iodo-2-propynyl butylcarbamate (IPBC)] | 88.5 |
| O=C(CN1CCN(c2csc(Cl)n2)CC1)Nc1ccc(Cl)c(C(F)(F)F)c1 + CCCCNC(=O)OCC#CI [3-iodo-2-propynyl butylcarbamate (IPBC)] | 101 |
| CCN(CC)\C1=C(/C(=O)N2CCOCC2)[S](=O)(=O)C3=CC=CC=C13 + CCCCNC(=O)OCC#CI [3-iodo-2-propynyl butylcarbamate (IPBC)] | 106 |
| CCCN1\C=C(/C(=O)C2=CC(=CC=C12)CC)[S](=O)(=O)C3=CC=C(OC)C=C3 + CCCCNC(=O)OCC#CI [3-iodo-2-propynyl butylcarbamate (IPBC)] | 106 |
| CC(C)NC(=O)NCCc1nc2cccnc2n1-c1ccccc1 + CCCCNC(=O)OCC#CI [3-iodo-2-propynyl butylcarbamate (IPBC)] | 90 |
| Cc1cc(NC(=O)CSCC(=O)OCc2ccc(-n3cccn3)cc2)no1 + CCCCNC(=O)OCC#CI [3-iodo-2-propynyl butylcarbamate (IPBC)] | 102 |
| FC(F)(F)CNC(=O)C1=CC=CC=C1NC(=O)CN2C(=O)\C=C/N(CC3=CC=CC=C3)C2=O + CCCCNC(=O)OCC#CI [3-iodo-2-propynyl butylcarbamate (IPBC)] | 96.4 |

Next records

| Structure (SMILES) | growth [%] |
| --- | --- |
| CC(C(=O)NC(=O)NC(C)(C)C)N1CCC(c2nc3ccccc3s2)CC1 (centres undefined) + CCCCNC(=O)OCC#CI [3-iodo-2-propynyl butylcarbamate (IPBC)] | 98.2 |
| O=C(OCC(=O)N1CCNC1=O)c1cnn(Cc2ccccc2)c1 + CCCCNC(=O)OCC#CI [3-iodo-2-propynyl butylcarbamate (IPBC)] | 95.1 |
| CN(CCNC(=O)N\C1=C\N(C)C(=O)C2=CC=CC=C12)C3CCCCC3 + CCCCNC(=O)OCC#CI [3-iodo-2-propynyl butylcarbamate (IPBC)] | 94.3 |
| COc1ccccc1NC(=O)c1ccc(NC(=O)CSc2nnc(C)n2N)cc1 + CCCCNC(=O)OCC#CI [3-iodo-2-propynyl butylcarbamate (IPBC)] | 103 |
| CCN(CC)C(=O)Cn1c(S(=O)(=O)Cc2ccccc2)nc2ccccc21 + CCCCNC(=O)OCC#CI [3-iodo-2-propynyl butylcarbamate (IPBC)] | 98.6 |
| CC/1=C/C(=O)N(/C(=C1C(=O)OCC(=O)NC2(CCCC2)C#N)C)C3=CC=CC=C3 + CCCCNC(=O)OCC#CI [3-iodo-2-propynyl butylcarbamate (IPBC)] | 96.1 |
| Cc1nc2nc(CCc3ccccc3)nn2c(C)c1Cl + CCCCNC(=O)OCC#CI [3-iodo-2-propynyl butylcarbamate (IPBC)] | 99.3 |
| Cc1cccc(Cl)c1NS(=O)(=O)c1ccc(C)c(N2CCCC2=O)c1C + CCCCNC(=O)OCC#CI [3-iodo-2-propynyl butylcarbamate (IPBC)] | 100 |
| O=C(NCc1ccco1)C1(S(=O)(=O)c2ccccc2)CCCC1 + CCCCNC(=O)OCC#CI [3-iodo-2-propynyl butylcarbamate (IPBC)] | 112 |
| Cc1nc(C)c(C(=O)OCc2ccc(C#N)cc2)s1 + CCCCNC(=O)OCC#CI [3-iodo-2-propynyl butylcarbamate (IPBC)] | 88.3 |
| CCC(C(=O)Nc1nc2nc(C)cc(O)n2n1)c1ccccc1 (centres undefined) + CCCCNC(=O)OCC#CI [3-iodo-2-propynyl butylcarbamate (IPBC)] | 99.6 |
| CN(Cc1ccc(Cl)s1)C(=O)CSc1n[nH]c(-c2cccs2)n1 + CCCCNC(=O)OCC#CI [3-iodo-2-propynyl butylcarbamate (IPBC)] | 97.1 |
| CC(C(=O)O)n1c(SCC(=O)N(C)CCOc2ccc(Cl)cc2)nnc1-c1cccs1 (centres undefined) + CCCCNC(=O)OCC#CI [3-iodo-2-propynyl butylcarbamate (IPBC)] | 109 |
| O=C(c1ccco1)N1CCN(C(=O)c2cccnc2SC(F)F)CC1 + CCCCNC(=O)OCC#CI [3-iodo-2-propynyl butylcarbamate (IPBC)] | 106 |
| CC(C)CNC(=O)N1[C@H](c2cccs2)[C@@H](C)C(=O)[C@@H](C)[C@@H]1c1cccs1 + CCCCNC(=O)OCC#CI [3-iodo-2-propynyl butylcarbamate (IPBC)] | 90.3 |
| CCCn1c(SCC(=O)Nc2ccc(CC#N)cc2)nnc1-c1ccncc1 + CCCCNC(=O)OCC#CI [3-iodo-2-propynyl butylcarbamate (IPBC)] | 103 |
| CCOC(=O)c1c(-c2ccccc2)csc1NC(=O)CCSc1nnc(C)s1 + CCCCNC(=O)OCC#CI [3-iodo-2-propynyl butylcarbamate (IPBC)] | 82.6 |
| CCc1cc2c(Nc3cccc(O)c3)nc(C)nc2s1 + CCCCNC(=O)OCC#CI [3-iodo-2-propynyl butylcarbamate (IPBC)] | 59.9 |
| COC(=O)c1ccc(C(=O)Nc2ccccc2C(=O)NCc2ccccc2)s1 + CCCCNC(=O)OCC#CI [3-iodo-2-propynyl butylcarbamate (IPBC)] | 108 |
